# Results deposited as PubChem BioAssay AID504774 (Drosophila RNAi Screening Center, 2011).
# Purpose: 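Fly genes whose loss alters survival after alkylation damage to DNA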 (primary screen)
# Cell system: Drosophila Kc167 cells
# Knock-down reagent: long dsRNA against Drosophila genes, about 0.25 µg dsRNA per well
# Duration: about 6 days: 3 days knock-down, then 3 days with or without MMS
# Challenge: methyl methanesulphonate 0.004% (w/v) for 3 days after knock-down
# Measured: 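ATP-dependent luminescence as a measure of live cells in MMS-exposed wells, quantile normalised within each plate, with replicate values also given as a mean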
# Direction: mean viability with MMS and viability with MMS: higher = more surviving cells after MMS
# In all, the deposit lists about 23,000 reagents; this is a random part of those with a known target gene and a result. 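Values are quantile-normalised luminescence on an arbitrary scale; higher means more cells surviving MMS.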 Names joined by + are all predicted targets of the reagent.
Gene,DRSC id,mean viability with MMS,"viability with MMS, replicate 1","viability with MMS, replicate 2"
CG7080,DRSC16193,3.60e6,4.07e6,4.08e6
Ars2 (Arsenic resistance protein 2),DRSC04893,3.06e6,3.56e6,2.82e6
Or67b (Odorant receptor 67b),DRSC11241,3.81e6,4.28e6,4.25e6
Tif-IA,DRSC03717,3.04e6,3.48e6,3.17e6
Tif-IA,DRSC03726,3.38e6,3.75e6,3.86e6
fy (fuzzy),DRSC03533,3.47e6,3.98e6,3.88e6
CG8329,DRSC10978,3.57e6,4.10e6,4.01e6
CG13615,DRSC14618,3.58e6,4.03e6,4.09e6
HemK2 + Snapin,DRSC00736,3.48e6,3.97e6,3.87e6
HemK2 + Snapin,DRSC00737,3.45e6,3.87e6,3.93e6
san (separation anxiety),DRSC07695,3.55e6,4.06e6,4.00e6
CG7714,DRSC16300,3.49e6,3.87e6,4.06e6
CG16970 (retired record),DRSC01310,3.53e6,4.01e6,4.00e6
CG16970 (retired record),DRSC02549,3.59e6,4.14e6,4.00e6
rb (ruby),DRSC18826,3.86e6,4.45e6,4.39e6
CG14642,DRSC12228,3.59e6,4.02e6,4.12e6
spirit (Serine Protease Immune Response Integrator),DRSC18202,3.69e6,4.45e6,3.91e6
nsl1 (non-specific lethal 1),DRSC15625,3.37e6,3.77e6,3.89e6
CG12224,DRSC14480,3.43e6,3.96e6,3.86e6
CG2162,DRSC08557,3.25e6,3.72e6,3.74e6
lncRNA:CR32730 (long non-coding RNA:CR32730),DRSC22957,3.51e6,4.04e6,3.93e6
sm (smooth),DRSC05795,3.51e6,4.00e6,3.97e6
sm (smooth),DRSC07686,3.66e6,4.07e6,4.23e6
Tmem214 (Transmembrane protein 214),DRSC02924,3.60e6,3.84e6,4.33e6
Tmem214 (Transmembrane protein 214),DRSC02925,3.60e6,3.87e6,4.31e6
CG33752,DRSC05351,3.52e6,3.93e6,4.06e6
CG31086 + CG31323,DRSC14902,3.28e6,3.70e6,3.71e6
CG4757,DRSC14130,3.51e6,4.05e6,3.93e6
mew (multiple edematous wings),DRSC18971,3.34e6,3.83e6,3.72e6
mew (multiple edematous wings),DRSC20352,3.46e6,3.98e6,3.84e6
Cdc16 (Cell division cycle 16),DRSC16920,3.41e6,3.85e6,3.83e6
PGRP-LB (Peptidoglycan recognition protein LB),DRSC14926,3.61e6,4.15e6,4.06e6
Mst27D (Male specific transcript 27D),DRSC00967,3.26e6,3.70e6,3.68e6
Cmtr1 (Cap methyltransferase 1),DRSC18400,3.58e6,3.89e6,4.24e6
Prosbeta4R1 (Proteasome beta4 subunit-related 1),DRSC00502,3.41e6,3.78e6,3.90e6
CG42306 + Gint3,DRSC06934,3.34e6,3.82e6,3.79e6
nac (neuronally altered carbohydrate),DRSC16520,3.44e6,3.88e6,3.95e6
Nnf1b,DRSC22080,3.78e6,4.26e6,4.19e6
ewg (erect wing),DRSC18773,3.59e6,4.10e6,4.05e6
dpy (dumpy),DRSC00233,3.51e6,4.10e6,3.88e6
dpy (dumpy),DRSC00234,3.40e6,4.00e6,3.76e6
dpy (dumpy),DRSC00472,3.70e6,4.12e6,4.19e6
CG10104,DRSC05964,3.54e6,3.95e6,4.12e6
Tmf (TATA element modulatory factor),DRSC18368,3.58e6,4.12e6,4.02e6
Ras64B (Ras oncogene at 64B),DRSC08689,3.53e6,3.96e6,4.03e6
tHMG1 (testis-enriched HMG-box-containing protein 1),DRSC16181,3.45e6,3.77e6,4.06e6
